Patent publication US20210395281A1, “MACROCYCLIC CHELATES AND USES THEREOF” (Fusion Pharmaceuticals Inc., priority 2020, published 2021)

Assay: Radiolabeling with ^89Zr, conversion by radioTLC
Format: physicochemical
Details: HEPES 0.5 M, 90° C., 1 h

Molecule	Conversion (%) (^89Zr(ox)2)	Conversion (%) (^89ZrCl4)
O=C(O)CN1CCN(CC(=O)O)CCN(CC(=O)O)[C@@H](Cc2ccc([N+](=O)[O-])cc2)CN(CC(=O)O)CC1 [DOTA, S-2-(4-nitrobenzyl)-1,4,7,10-tetraazacyclododecane tetraacetic acid]	33%	50%
desferrioxamine mesylate salt [DFO]	> 99%	
